# Percent effect of library compounds

By UniProt entry, the sequences of proteins in these tests, tags left out. Residues count along the entry.
UniProt P9WPC5, whole entry: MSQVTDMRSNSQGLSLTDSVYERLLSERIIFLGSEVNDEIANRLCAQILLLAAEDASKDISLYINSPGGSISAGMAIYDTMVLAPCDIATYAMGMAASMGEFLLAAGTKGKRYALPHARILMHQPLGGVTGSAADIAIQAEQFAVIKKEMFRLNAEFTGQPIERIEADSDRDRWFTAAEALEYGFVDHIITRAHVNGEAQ
UniProt P9WPC3, whole entry partner: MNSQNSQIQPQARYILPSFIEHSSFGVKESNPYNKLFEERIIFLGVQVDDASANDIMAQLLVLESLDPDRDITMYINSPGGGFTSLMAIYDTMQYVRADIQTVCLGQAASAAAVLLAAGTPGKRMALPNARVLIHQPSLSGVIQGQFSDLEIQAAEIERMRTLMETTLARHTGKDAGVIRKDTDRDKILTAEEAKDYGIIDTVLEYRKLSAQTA
UniProt P9WNZ1, whole entry: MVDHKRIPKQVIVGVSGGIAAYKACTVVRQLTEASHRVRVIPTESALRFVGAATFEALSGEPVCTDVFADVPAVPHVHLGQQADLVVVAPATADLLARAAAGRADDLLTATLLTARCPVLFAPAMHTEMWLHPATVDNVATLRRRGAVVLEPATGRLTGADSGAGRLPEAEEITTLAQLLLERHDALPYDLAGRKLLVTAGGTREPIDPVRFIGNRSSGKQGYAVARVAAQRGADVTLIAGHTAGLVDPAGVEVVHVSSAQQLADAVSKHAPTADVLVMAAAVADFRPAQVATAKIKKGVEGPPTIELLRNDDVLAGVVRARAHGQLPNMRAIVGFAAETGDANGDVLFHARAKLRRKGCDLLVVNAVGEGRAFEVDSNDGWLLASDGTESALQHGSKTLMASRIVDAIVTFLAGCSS
UniProt Q8IDJ8, 1-583: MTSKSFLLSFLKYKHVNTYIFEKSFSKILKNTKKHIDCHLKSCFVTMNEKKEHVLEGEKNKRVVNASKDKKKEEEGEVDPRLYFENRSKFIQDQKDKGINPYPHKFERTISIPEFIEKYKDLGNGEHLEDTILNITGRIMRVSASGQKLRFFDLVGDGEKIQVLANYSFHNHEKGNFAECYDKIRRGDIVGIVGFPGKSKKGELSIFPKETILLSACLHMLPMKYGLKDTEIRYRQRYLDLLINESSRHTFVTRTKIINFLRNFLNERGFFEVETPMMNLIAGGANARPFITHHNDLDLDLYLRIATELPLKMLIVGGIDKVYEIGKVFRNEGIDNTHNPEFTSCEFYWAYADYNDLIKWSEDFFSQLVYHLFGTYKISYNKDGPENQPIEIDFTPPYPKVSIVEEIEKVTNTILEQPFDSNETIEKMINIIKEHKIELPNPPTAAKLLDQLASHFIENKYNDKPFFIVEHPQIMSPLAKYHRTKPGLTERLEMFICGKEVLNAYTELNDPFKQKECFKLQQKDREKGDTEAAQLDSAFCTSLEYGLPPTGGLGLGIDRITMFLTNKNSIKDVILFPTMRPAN

From ChEMBL document CHEMBL3988442, “University of Dundee, Small-Polar-MMV Screening Library” (2021).

Values are the deposited “Percent Effect”, in %. The controls that fix the scale are not given in the record; negative values are as filed. The compounds are a random part of those screened. Two or more numbers in one place are separate tests of the same structure; such repeats can differ widely. A dash means the value is not listed here; it may have been measured.

ClpP1P2: 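ClpP1P2, Mycobacterium tuberculosis (UniProt P9WPC5 and UniProt P9WPC3). Protease assay of ClpP1P2, read by the AMC dye that it sets free. Tested at 50 µM. Higher reads as stronger inhibition, judged from the few compounds that gave an IC50. Most other retested compounds had strongly negative values. Size under these conditions: about 69,000 compounds, about 10 of them at 50% or above in at least one test.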
CoaBC: 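Coenzyme A biosynthesis protein CoaBC, Mycobacterium tuberculosis (UniProt P9WNZ1). Enzyme assay of CoaBC with a phosphate dye (Biomol Green) read at 650 nm. Tested at 30 µM. Higher reads as stronger inhibition, judged from the few compounds that gave an IC50. Most strong results did not repeat in a second test. Size under these conditions: about 67,000 compounds, about 40 of them at 50% or above in at least one test.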
PfKRS1: 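Enzyme assay of the cytosolic lysyl-tRNA synthetase in 384-well plates, read by luminescence. Target: Lysine-tRNA ligase, Plasmodium falciparum 3D7 (UniProt Q8IDJ8). Tested at 30 µM. Direction is inferred from only a few compounds that gave an IC50; most scored high, so higher reads as stronger inhibition. About 69,000 compounds were tested under these conditions; 0.071% (about 49) showed 50% or more at least once.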
Leishmania in macrophages: 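Cell assay of Leishmania donovani living inside macrophages; the read-out is not stated. Concentration: 30 µM. The record gives no direction; compounds that gave an IC50 in retests scored well above the rest, so higher reads as stronger inhibition. About 69,000 compounds were tested under these conditions; 1.5% (about 1,000) showed 50% or more at least once.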

structure | ClpP1P2 | CoaBC | PfKRS1 | Leishmania in macrophages
CC(C)c1nccn1CCC(=O)N1CCCC1c1cccn1C (configuration not stated) | -7.562% | 1.961% | 2.221% | 15.77%
COc1ccc(OCCN2CCCN(Cc3noc(C)n3)CC2)cc1 | 21.83% | -1.434% | -0.344% | -12.46%
O=C(C1CC1)N1CC[C@H](c2nnc(-c3ccccc3F)o2)C1 | -7.395% | -6.998% | 4.88% | 13.97%
Fc1ccc(C2(CNC3=NCCCN3)CCC2)cc1 | -9.576% | 10.45% | 3.088% | -
CN(C)C(=O)[C@H]1C[C@@H]2CCN(Cc3ccoc3)C[C@@H]2O1 | 5.099% | 3.21% | 3.069% | -
[H][C@@]12C[C@@H](OCc3ccccc3)C[C@]1([H])CN(Cc1cncnc1)C2 | - | - | - | 10.95% & 15.31%
CCn1nc(CC(C)C)cc1C(=O)NCCS(=O)(=O)N(C)C | 18.57% | -0.361% | 3.198% | 19.44%
CC(C)CC(=O)N1CCc2nc(N3CCOCC3)nc(NC(C)C)c2C1 | 5.791% | -9.845% | -0.8222% | 13.04%
COc1ccc(CNC(=O)Nc2cccnc2N2CCCC2)cc1O | 4.324% | 5.813% | 7.321% | 11.42%
CSCC[C@H](NC(=O)Cn1ccc2c(Cl)cccc21)C(=O)O | 6.983% | 4.441% | 8.222% | 16.12%
O=C1[C@H]2CN(S(=O)(=O)c3cccs3)C[C@H]2CN1CC1CC1 | -6.685% | 4.071% | 1.445% | -
CN(C)c1ncc(-c2ccc(NC(=O)[C@@H]3CCCCN3)cc2)cn1 | -0.08731% | 4.458% | 2.154% | 21.4% & 22.11%
CCCC(C)C(=O)N1CCC(c2cc(N3CCOCC3)nc(C)n2)CC1 (configuration not stated) | 1.177% | -2.778% | 13.44% | 19.4%
O=C(NCC1CC1)c1nc2c(o1)CN(CC1CC1)C2 | -9.658% | - | -0.8065% | -
Cc1ccc(NC(=O)N2CCOC(C(N)=O)C2)cc1C(F)(F)F (configuration not stated) | -4.692% | 11.79% | 3.568% | -34.94%
N#Cc1ccc(OC2CCN(C(=O)c3ccc4c(c3)OCO4)CC2)nc1 | -14.09% | -1.493% | -2.956% | -9.451%
COC(=O)CCC(=O)N(C/C=C/c1ccccc1)CCO | -7.844% | -3.354% | -1.189% | -19.03%
CCc1nnc(CN2CCN(CC(O)c3ccccc3)CC2)o1 (configuration not stated) | -26.14% | -3.864% | 0.8858% | -0.1101%
COCCN1CCN(c2ccc(C)nn2)Cc2cccnc21.O=C(O)C(F)(F)F | - | - | - | 9.915%
CN(C)C(=O)CN1CCOCC2(CCN(CC3CCOCC3)CC2)C1.O=C(O)C(F)(F)F.O=C(O)C(F)(F)F | - | - | - | 20.73% & 18.37%
CS(=O)(=O)NCc1nnc2n1CCN(Cc1cccnc1)C2 | 1.445% | -3.75% | -3.762% | -15.11%
CCc1cc(N[C@H]2CC[C@@H](N)CC2)n2nc(C)c(C)c2n1 | -19.98% | 2.806% | 1.168% | 40.18%
CC(C)CC(O)C1CCN(Cc2ccc(N(C)C)nc2)CC1 (configuration not stated) | -7.08% | 4.37% | -0.7087% | 23.95%
COc1cccc(OCCc2cncc(C(N)=O)c2)c1 | -11.44% | 4.206% | 10.85% | 7.19%
CC(Cn1ccnc1)NC(=O)N1CCCN(Cc2cccs2)CC1 (configuration not stated) | 2.423% | 1.673% | 1.632% | 23.93%
CN(C)CCO[C@H]1C[C@@H](O)C12CCN(c1ncccc1Cl)CC2 | -19.87% | 4.536% | 8.775% | -11.87%
O=C(COc1coc(CN2CCCCC2)cc1=O)NCc1ccccc1 | 0.147% | 3.914% | 12.46% | 4.237%
COCCN1CCCN(C(=O)c2oc(C)nc2C)CC1 | -8.173% | 3.169% | -4.444% | 31.92%
CCc1sc(-c2nnc(CNCCn3cc(C)cn3)o2)cc1C | -8.857% | 4.743% | 6.747% | -19.48%
Cc1ccc2c(c1)C1(CCNCC1)CC2N1CCOCC1 (configuration not stated) | 9.708% | 0.7246% | 1.207% | 11.46%
O=C(O)C(F)(F)F.[H][C@]12CCC[C@@]1(COC)CN(C(=O)Cc1ccccn1)C2 | - | - | - | 22.8%
COc1ccc(C(C)NCc2ccnn2C)cc1Cn1cccn1 (configuration not stated) | -9.91% | -7.582% | 1.591% | 30.62%
O=C(c1cnc(O)cn1)N1CCC(CN2CCOCC2)CC1 | -4.342% | 3.676% | 5.941% | 8.319%
[H][C@]12CC[C@]([H])(CN(Cc3cccc(O)c3)C1)N(Cc1c(C)noc1C)C2=O | - | - | - | 12.12%
Cc1ccc(CN(C)C(=O)CN2CCc3ccccc3C2)o1 | -6.682% | 0.8505% | 4.506% | -6.308%
O=C(CO)N1CCC2(CC1)CC(=O)N(Cc1cc(F)cc(F)c1)C2 | -4.509% | -2.286% | 6.85% | -47.38%
Cc1nc(COC[C@@H]2CCC[C@@]23CN(C)CCO3)cs1.O=C(O)C(F)(F)F | - | - | - | 14.07%
O=c1c(S(=O)(=O)N2CCCC2)cccn1Cc1ccccc1Cl | 6.596% | 6.846% | 5.734% | 24.32%
CN(Cc1cccc(CCN)c1)Cc1cccc2ncccc12 | 3.838% | -0.7407% | 0% | 68.5%
O=C(O)C(F)(F)F.[H][C@@]12CCCO[C@]1([H])[C@H](N(C)Cc1ccco1)CN(C(=O)c1cnccn1)C2 | - | - | - | 4.35%
COCC(=O)N1CCN(CC2CC2)c2ncccc2C1 | 0.1887% | -3.832% | -6.088% | -9.167%
CN(C[C@@H]1CCC[C@@H]2CN(c3ncccn3)C[C@@H]21)C1CC1 | -6.587% | 3.053% | 6.814% | -
Cc1ccc(C)c(C(NC(=O)C(C)(C)C)c2cccnc2)c1 (configuration not stated) | -3.013% | 3.422% | 0.214% | -4.269%
O=C(O)C(F)(F)F.[H][C@@]12OCCN(C(=O)N3CCCC3)[C@@]1([H])CC[C@@H]2OCc1cccnc1 | - | - | - | 9.578%
CSc1ncccc1C(=O)NCCC(O)c1cc(C)oc1C (configuration not stated) | -2.889% | 11.21% | 4.244% | 7.342%
Fc1ccc(CN2CC[C@H]3O[C@@H](COCC4CCOCC4)CC[C@H]32)cc1 | 7.678% | 19.17% | -8.949% | -
[H][C@@]12CCN(S(=O)(=O)CCC)[C@]1([H])CC[C@H](c1nc(C)no1)O2 | - | - | - | 33.01%
CCCN1CCCn2nc(CNC(=O)CC3CCS(=O)(=O)C3)cc2C1 (configuration not stated) | -11.74% | 4.701% | 0.9096% | -10.3%
O=C(N1CCCC1)N1CCC2(CC1)CN(c1cccnc1)C(=O)CO2.O=C(O)C(F)(F)F | - | - | - | 42.37%
COc1ccccc1C1SCC(=O)Nc2n[nH]cc21 (configuration not stated) | -7.081% | 2.564% | 4.956% | 7.302%
CC(CCc1ccccc1)NC(=O)CNCCCN(C)C.O=C(O)C(=O)O (configuration not stated) | - | - | - | -24.91%
CN(C)Cc1nc(C(C)(C)NC(=O)c2ccnn2C)no1 | 7.375% | -2.479% | 1.238% | -11.46%
CC(OCC(F)(F)F)C(=O)N1CCCCC1 (configuration not stated) | -9.936% | 1.066% | 4.115% | 4.618%
CN(Cc1ccc(F)cc1F)CC(C)(CO)CO | 0.7105% | 2.066% | 1.49% | 23.32%
O=C(Cc1ccc(O)c(Cl)c1)N1CCCCC1CCn1cccn1 (configuration not stated) | -19.07% | 13.01% | 0.1156% | 9.641%
O=C(c1cnccn1)N1CCc2ncnc(C3CCOC3)c2CC1 (configuration not stated) | 1.535% | 2.843% | -0.691% | 3.195%
COCCn1cc(C(=O)N2CCCC2c2ccncc2)c2ccccc21 (configuration not stated) | -5.035% | 12.7% | 4.606% | -8.376%
CCCc1nc(N2CC[C@@H](c3ccc4ccccc4c3)[C@H](O)C2)no1 | 0.3698% | -3.576% | 3.884% | 50.36%
CC(C)(C)OCC1CN(CC2CC2)S(=O)(=O)c2cnccc2O1 (configuration not stated) | 3.264% | 2.331% | 2.187% | 6.139%
CC(C)c1nccn1C1CCCN(C(=O)c2cc(C(N)=O)cs2)C1 (configuration not stated) | -24.14% | -6.702% | 2.117% | 16.84%
CC(C)n1cnnc1CNC(=O)c1cnc2ccccc2n1 | 5.946% | 10.71% | 1.383% | 26.41%
Cc1n[nH]c(C)c1S(=O)(=O)N1CCC(Oc2ccccc2F)CC1 | -9.72% | -10.21% | 1.032% | 4.019%
CCOCc1ccc(NC(=O)NC2CCCn3nc(CC)nc32)cc1 (configuration not stated) | -8.819% | 0.4032% | 1.584% | 12.83%
Cc1ccoc1C(=O)N1CCOCC2(CCN(c3ncccn3)C2)C1.O=C(O)C(F)(F)F (configuration not stated) | - | - | - | 0.7711%
Cc1c(C(C)NC(=O)N2CCN(C3CCCC3)CC2)cnn1C (configuration not stated) | 14.29% | 2.428% | -4.7% | -9.563%
Cc1noc(C)c1CN1CCN(C(=O)Cn2cncn2)CC1 | -0.5454% | 4.846% | 3.746% | -2.13%

The last 7 entries again:

- CC(C)c1nccn1C1CCCN(C(=O)c2cc(C(N)=O)cs2)C1 (configuration not stated) | ClpP1P2: -24.14%; CoaBC: -6.702%; PfKRS1: 2.117%; Leishmania in macrophages: 16.84%
- CC(C)n1cnnc1CNC(=O)c1cnc2ccccc2n1 | ClpP1P2: 5.946%; CoaBC: 10.71%; PfKRS1: 1.383%; Leishmania in macrophages: 26.41%
- Cc1n[nH]c(C)c1S(=O)(=O)N1CCC(Oc2ccccc2F)CC1 | ClpP1P2: -9.72%; CoaBC: -10.21%; PfKRS1: 1.032%; Leishmania in macrophages: 4.019%
- CCOCc1ccc(NC(=O)NC2CCCn3nc(CC)nc32)cc1 (configuration not stated) | ClpP1P2: -8.819%; CoaBC: 0.4032%; PfKRS1: 1.584%; Leishmania in macrophages: 12.83%
- Cc1ccoc1C(=O)N1CCOCC2(CCN(c3ncccn3)C2)C1.O=C(O)C(F)(F)F (configuration not stated) | Leishmania in macrophages: 0.7711%
- Cc1c(C(C)NC(=O)N2CCN(C3CCCC3)CC2)cnn1C (configuration not stated) | ClpP1P2: 14.29%; CoaBC: 2.428%; PfKRS1: -4.7%; Leishmania in macrophages: -9.563%
- Cc1noc(C)c1CN1CCN(C(=O)Cn2cncn2)CC1 | ClpP1P2: -0.5454%; CoaBC: 4.846%; PfKRS1: 3.746%; Leishmania in macrophages: -2.13%